Data taken from publication doi:10.1101/2024.10.24.620053.
These are yes or no findings as the source states them, for the method shown. In cells and extracts the contact can be indirect. Some results given as binding are weak or reduced against the parent protein; the word gives no strength.

Chains of the proteins cited; added tags and fusions are not shown.
UniProt Q9UHD9, whole entry: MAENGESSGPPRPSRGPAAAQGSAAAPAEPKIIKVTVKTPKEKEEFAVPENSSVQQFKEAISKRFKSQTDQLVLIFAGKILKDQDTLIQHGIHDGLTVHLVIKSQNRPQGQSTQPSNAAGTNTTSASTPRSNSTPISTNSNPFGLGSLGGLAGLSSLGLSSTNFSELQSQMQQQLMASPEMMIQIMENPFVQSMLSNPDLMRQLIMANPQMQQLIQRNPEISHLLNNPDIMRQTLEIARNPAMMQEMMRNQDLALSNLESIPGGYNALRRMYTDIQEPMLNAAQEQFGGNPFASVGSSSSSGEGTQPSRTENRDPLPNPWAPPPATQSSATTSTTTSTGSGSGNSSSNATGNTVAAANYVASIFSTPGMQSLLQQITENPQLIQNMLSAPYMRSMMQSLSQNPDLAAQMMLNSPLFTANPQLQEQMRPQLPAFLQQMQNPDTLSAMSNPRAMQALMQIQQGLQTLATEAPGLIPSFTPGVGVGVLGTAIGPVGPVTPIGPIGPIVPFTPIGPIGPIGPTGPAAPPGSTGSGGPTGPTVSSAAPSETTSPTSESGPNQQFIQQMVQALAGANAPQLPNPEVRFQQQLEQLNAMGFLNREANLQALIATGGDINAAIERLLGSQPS
UniProt A6ZKI3, whole entry: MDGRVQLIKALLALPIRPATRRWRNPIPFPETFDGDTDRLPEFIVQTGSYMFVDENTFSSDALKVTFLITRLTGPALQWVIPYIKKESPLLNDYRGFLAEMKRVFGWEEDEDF

Experiments:
[1] = biological target: UBQLN2 (human (endogenous in HEK293 and HeLa)) (UniProt Q9UHD9); assay: co-IP
[2] = biological target: T1, PEG10 gag-pol (human (endogenous in HEK293 and HeLa)) (UniProt Q86TG7); assay: co-IP
T1 sequence: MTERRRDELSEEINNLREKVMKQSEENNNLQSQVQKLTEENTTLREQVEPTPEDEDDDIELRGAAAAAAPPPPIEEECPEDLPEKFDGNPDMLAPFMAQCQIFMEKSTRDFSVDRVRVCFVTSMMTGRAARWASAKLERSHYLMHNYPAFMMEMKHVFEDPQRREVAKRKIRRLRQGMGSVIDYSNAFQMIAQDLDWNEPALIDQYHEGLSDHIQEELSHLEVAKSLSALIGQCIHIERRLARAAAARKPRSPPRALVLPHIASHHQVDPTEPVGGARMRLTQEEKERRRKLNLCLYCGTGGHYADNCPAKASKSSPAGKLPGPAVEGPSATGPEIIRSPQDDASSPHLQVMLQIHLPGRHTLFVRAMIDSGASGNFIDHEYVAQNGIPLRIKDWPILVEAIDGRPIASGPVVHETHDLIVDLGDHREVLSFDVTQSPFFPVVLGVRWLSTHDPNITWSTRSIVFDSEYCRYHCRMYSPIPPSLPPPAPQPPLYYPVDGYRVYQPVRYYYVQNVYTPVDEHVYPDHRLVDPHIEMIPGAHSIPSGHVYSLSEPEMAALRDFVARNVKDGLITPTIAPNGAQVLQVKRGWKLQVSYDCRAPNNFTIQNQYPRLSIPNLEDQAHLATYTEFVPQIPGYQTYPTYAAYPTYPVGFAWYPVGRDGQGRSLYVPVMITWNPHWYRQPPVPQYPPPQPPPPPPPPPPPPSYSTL

Substance: full-length (FL) HA-RTL8C (from UniProt A6ZKI3 1-113)
- binding [1]: binds
- binding [2]: binds
